# Results deposited as PubChem BioAssay AID1508597 (Cure First, 2020)
# Assay: 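Survival screen with siRNA in ovarian cancer cells derived from patients, with or without rucaparib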 (primary screen)
# Cells: human ovarian carcinoma lines grown from tumours: OCI-P5x (papillary serous) and OCI-C5x (clear cell)
# Knock-down reagent: siRNA pool against human genes, 1.25 pmol siRNA per well
# Timing: 72 h or 96 h, depending on the cell culture
# Treatment: rucaparib 20 µM (about IC30) or vehicle, present until read-out
# Measurement: 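Luminescent ATP-based viability assay read 72 or 96 h after transfection, depending on culture, given as normalised percent viability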
# Scale: viability, normalised: higher = more viable cells remaining
# Call rule: 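a well counts as a hit if its normalised viability is under 80 percent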
# Calls: active = viability under 80%; inactive = viability 80% or more
# This is a random part of about 2,100 reagents. 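Calls flag viability under 80% in either arm, not effects specific to rucaparib; the reference for percent is not stated.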 Entries without a mark were called inactive. Not given: the 100% reference.
gene,rucaparib or vehicle,cell line,technical replicate,"viability, normalised (%)"
PAPSS1,Rucaparib,OCI-C5x (clear cell),1,40.9 (active)
PAPSS1,Rucaparib,OCI-C5x (clear cell),2,51.1 (active)
PAPSS1,Rucaparib,OCI-C5x (clear cell),3,63.4 (active)
PAPSS1,Rucaparib,OCI-P5x (serous),1,111
PAPSS1,Rucaparib,OCI-P5x (serous),2,84
PAPSS1,Rucaparib,OCI-P5x (serous),3,71.4 (active)
PAPSS1,Vehicle,OCI-C5x (clear cell),1,81.6
PAPSS1,Vehicle,OCI-C5x (clear cell),2,79.3 (active)
PAPSS1,Vehicle,OCI-C5x (clear cell),3,35.6 (active)
PAPSS1,Vehicle,OCI-P5x (serous),1,65.9 (active)
PAPSS1,Vehicle,OCI-P5x (serous),2,76.6 (active)
PAPSS1,Vehicle,OCI-P5x (serous),3,71.5 (active)
AGO2,Rucaparib,OCI-C5x (clear cell),1,52.6 (active)
AGO2,Rucaparib,OCI-C5x (clear cell),2,68.5 (active)
AGO2,Rucaparib,OCI-C5x (clear cell),3,51 (active)
AGO2,Rucaparib,OCI-P5x (serous),1,70.9 (active)
AGO2,Rucaparib,OCI-P5x (serous),2,71.7 (active)
AGO2,Rucaparib,OCI-P5x (serous),3,65.9 (active)
AGO2,Vehicle,OCI-C5x (clear cell),1,55.1 (active)
AGO2,Vehicle,OCI-C5x (clear cell),2,47.6 (active)
AGO2,Vehicle,OCI-C5x (clear cell),3,37.7 (active)
AGO2,Vehicle,OCI-P5x (serous),1,64.6 (active)
AGO2,Vehicle,OCI-P5x (serous),2,68.2 (active)
AGO2,Vehicle,OCI-P5x (serous),3,85.9
SERPINE2,Rucaparib,OCI-C5x (clear cell),1,55.1 (active)
SERPINE2,Rucaparib,OCI-C5x (clear cell),2,45.8 (active)
SERPINE2,Rucaparib,OCI-C5x (clear cell),3,50.6 (active)
SERPINE2,Rucaparib,OCI-P5x (serous),1,44.9 (active)
SERPINE2,Rucaparib,OCI-P5x (serous),2,40.9 (active)
SERPINE2,Rucaparib,OCI-P5x (serous),3,58.5 (active)
SERPINE2,Vehicle,OCI-C5x (clear cell),1,38.2 (active)
SERPINE2,Vehicle,OCI-C5x (clear cell),2,71.8 (active)
SERPINE2,Vehicle,OCI-C5x (clear cell),3,53.7 (active)
SERPINE2,Vehicle,OCI-P5x (serous),1,71.5 (active)
SERPINE2,Vehicle,OCI-P5x (serous),2,72.1 (active)
SERPINE2,Vehicle,OCI-P5x (serous),3,87.7
MED20,Rucaparib,OCI-C5x (clear cell),1,33.3 (active)
MED20,Rucaparib,OCI-C5x (clear cell),2,35.3 (active)
MED20,Rucaparib,OCI-C5x (clear cell),3,36.5 (active)
MED20,Rucaparib,OCI-P5x (serous),1,59.1 (active)
MED20,Rucaparib,OCI-P5x (serous),2,53.6 (active)
MED20,Rucaparib,OCI-P5x (serous),3,47.8 (active)
MED20,Vehicle,OCI-C5x (clear cell),1,44.2 (active)
MED20,Vehicle,OCI-C5x (clear cell),2,48.7 (active)
MED20,Vehicle,OCI-C5x (clear cell),3,34.4 (active)
MED20,Vehicle,OCI-P5x (serous),1,49 (active)
MED20,Vehicle,OCI-P5x (serous),2,63.5 (active)
MED20,Vehicle,OCI-P5x (serous),3,65.2 (active)
MSH5,Rucaparib,OCI-C5x (clear cell),1,62.5 (active)
MSH5,Rucaparib,OCI-C5x (clear cell),2,54.7 (active)
MSH5,Rucaparib,OCI-C5x (clear cell),3,52.6 (active)
MSH5,Rucaparib,OCI-P5x (serous),1,108
MSH5,Rucaparib,OCI-P5x (serous),2,106
MSH5,Rucaparib,OCI-P5x (serous),3,90.3
MSH5,Vehicle,OCI-C5x (clear cell),1,44 (active)
MSH5,Vehicle,OCI-C5x (clear cell),2,57.9 (active)
MSH5,Vehicle,OCI-C5x (clear cell),3,62.6 (active)
MSH5,Vehicle,OCI-P5x (serous),1,87.9
MSH5,Vehicle,OCI-P5x (serous),2,85.3
MSH5,Vehicle,OCI-P5x (serous),3,88.5
